The results in this text go back to the supplement of paper PMC7666118.

Amino acid sequences for entries named in this document (tags omitted). A change or cut given only in a name is not applied to a line headed by its entry.
UniProt Q68CR1: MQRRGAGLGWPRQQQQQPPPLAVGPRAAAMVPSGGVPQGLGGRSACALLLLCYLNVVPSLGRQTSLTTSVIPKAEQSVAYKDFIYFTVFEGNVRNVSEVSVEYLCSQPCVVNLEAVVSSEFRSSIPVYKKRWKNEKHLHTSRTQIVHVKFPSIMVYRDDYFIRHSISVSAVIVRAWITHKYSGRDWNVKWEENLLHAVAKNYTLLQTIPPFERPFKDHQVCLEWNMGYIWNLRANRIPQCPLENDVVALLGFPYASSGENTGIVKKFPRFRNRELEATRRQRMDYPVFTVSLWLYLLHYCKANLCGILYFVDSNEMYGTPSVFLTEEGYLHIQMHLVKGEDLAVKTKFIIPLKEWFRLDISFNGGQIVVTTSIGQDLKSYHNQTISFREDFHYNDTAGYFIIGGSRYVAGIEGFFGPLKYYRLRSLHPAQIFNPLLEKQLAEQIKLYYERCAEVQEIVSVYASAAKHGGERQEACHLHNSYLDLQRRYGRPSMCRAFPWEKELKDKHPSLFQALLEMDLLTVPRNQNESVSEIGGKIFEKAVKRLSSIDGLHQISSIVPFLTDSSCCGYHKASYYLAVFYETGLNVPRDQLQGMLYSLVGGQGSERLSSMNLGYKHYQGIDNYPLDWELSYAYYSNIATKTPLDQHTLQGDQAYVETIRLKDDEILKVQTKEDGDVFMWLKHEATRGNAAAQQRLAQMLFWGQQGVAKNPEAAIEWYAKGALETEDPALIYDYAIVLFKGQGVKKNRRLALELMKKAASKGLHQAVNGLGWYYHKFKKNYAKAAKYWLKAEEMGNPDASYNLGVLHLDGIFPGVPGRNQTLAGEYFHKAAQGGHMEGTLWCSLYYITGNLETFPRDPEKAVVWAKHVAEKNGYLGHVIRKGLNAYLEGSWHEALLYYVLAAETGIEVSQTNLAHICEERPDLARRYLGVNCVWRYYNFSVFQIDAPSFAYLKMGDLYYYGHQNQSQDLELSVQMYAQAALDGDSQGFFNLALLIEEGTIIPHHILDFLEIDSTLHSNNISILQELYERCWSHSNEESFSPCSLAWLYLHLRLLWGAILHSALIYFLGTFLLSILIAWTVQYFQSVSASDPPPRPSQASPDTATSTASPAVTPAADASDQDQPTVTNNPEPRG
UniProt Q9Y4Y9: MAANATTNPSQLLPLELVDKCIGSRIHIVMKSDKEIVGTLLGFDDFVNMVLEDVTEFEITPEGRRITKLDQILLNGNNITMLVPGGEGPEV
UniProt Q69YN4: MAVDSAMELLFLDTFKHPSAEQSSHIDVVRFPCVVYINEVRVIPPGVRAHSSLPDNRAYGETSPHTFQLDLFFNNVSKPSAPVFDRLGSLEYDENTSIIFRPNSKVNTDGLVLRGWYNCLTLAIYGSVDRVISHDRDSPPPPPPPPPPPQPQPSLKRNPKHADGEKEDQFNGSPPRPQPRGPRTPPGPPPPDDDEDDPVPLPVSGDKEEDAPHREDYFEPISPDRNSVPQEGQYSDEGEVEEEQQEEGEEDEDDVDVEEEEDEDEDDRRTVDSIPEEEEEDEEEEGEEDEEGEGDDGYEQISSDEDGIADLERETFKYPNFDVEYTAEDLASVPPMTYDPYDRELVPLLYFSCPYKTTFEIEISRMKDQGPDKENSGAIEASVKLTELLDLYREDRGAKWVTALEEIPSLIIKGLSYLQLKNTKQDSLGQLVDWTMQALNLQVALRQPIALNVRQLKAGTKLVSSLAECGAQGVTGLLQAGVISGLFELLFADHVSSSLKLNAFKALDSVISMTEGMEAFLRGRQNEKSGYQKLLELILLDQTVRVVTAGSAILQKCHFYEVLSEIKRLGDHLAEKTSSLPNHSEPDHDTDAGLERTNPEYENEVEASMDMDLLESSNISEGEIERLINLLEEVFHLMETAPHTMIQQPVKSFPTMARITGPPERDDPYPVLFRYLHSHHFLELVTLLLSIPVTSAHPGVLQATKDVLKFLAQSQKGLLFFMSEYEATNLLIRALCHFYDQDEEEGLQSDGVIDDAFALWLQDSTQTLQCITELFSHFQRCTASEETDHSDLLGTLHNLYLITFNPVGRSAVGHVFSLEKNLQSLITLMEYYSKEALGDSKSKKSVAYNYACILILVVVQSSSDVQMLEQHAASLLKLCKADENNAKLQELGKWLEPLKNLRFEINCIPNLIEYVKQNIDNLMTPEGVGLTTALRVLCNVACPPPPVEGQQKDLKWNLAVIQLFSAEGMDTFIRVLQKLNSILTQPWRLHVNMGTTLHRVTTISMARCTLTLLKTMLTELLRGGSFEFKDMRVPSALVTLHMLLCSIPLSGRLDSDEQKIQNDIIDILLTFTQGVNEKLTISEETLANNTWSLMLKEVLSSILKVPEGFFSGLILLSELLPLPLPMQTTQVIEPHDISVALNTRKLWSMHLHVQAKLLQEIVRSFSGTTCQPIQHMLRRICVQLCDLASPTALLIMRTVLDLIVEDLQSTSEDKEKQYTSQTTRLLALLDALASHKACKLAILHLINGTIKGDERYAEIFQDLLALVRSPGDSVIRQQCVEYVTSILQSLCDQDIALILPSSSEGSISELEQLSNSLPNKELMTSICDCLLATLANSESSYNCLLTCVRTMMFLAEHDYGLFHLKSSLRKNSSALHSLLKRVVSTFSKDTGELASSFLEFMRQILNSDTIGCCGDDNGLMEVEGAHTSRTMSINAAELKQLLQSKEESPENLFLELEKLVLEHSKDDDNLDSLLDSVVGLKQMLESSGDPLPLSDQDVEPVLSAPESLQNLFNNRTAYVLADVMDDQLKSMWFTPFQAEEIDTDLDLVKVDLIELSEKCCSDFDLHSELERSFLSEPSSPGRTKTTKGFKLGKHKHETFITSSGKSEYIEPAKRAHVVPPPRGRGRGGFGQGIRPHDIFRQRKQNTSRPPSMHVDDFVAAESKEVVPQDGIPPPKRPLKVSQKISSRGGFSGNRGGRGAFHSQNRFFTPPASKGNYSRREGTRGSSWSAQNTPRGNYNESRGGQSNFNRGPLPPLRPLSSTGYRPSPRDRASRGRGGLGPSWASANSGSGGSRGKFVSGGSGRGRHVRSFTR
UniProt Q9UIQ6, whole entry: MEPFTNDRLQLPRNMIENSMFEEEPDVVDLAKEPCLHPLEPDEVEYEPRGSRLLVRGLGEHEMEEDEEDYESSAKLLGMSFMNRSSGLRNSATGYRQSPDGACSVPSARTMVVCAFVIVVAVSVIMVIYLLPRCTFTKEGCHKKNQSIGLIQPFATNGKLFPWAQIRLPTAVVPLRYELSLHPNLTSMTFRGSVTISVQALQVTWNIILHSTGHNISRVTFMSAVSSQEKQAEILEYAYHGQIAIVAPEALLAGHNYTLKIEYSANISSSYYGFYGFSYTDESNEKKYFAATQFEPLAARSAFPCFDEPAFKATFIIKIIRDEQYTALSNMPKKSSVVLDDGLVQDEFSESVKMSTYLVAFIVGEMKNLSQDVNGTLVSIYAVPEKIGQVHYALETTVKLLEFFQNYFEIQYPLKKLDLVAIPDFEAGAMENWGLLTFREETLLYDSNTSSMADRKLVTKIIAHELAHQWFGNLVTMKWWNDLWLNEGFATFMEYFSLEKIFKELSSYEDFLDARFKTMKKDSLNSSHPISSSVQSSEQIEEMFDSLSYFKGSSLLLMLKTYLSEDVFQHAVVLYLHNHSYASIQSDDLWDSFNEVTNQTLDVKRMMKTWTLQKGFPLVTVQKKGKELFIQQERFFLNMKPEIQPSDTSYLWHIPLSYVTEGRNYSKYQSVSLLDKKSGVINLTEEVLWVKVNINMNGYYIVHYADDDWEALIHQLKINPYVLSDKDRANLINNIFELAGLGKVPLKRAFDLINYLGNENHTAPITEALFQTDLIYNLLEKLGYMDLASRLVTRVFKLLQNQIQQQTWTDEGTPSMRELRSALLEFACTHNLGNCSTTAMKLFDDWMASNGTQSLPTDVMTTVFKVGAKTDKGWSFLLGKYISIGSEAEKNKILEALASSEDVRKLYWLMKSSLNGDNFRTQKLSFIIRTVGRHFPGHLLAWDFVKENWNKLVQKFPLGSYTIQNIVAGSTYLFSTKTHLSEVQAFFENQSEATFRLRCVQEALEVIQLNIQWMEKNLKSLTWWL
UniProt Q9C0E8: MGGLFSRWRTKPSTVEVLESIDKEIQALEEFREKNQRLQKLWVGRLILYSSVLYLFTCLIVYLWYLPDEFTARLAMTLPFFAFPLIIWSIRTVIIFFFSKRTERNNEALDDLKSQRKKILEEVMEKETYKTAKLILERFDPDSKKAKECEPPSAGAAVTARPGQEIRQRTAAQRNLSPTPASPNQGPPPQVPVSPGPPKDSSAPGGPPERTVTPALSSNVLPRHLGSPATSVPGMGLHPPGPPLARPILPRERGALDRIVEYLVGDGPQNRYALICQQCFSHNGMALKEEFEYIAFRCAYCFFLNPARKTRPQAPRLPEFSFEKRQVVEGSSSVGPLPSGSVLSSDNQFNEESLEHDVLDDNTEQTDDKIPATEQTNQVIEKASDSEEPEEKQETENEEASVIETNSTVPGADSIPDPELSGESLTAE
UniProt O75143: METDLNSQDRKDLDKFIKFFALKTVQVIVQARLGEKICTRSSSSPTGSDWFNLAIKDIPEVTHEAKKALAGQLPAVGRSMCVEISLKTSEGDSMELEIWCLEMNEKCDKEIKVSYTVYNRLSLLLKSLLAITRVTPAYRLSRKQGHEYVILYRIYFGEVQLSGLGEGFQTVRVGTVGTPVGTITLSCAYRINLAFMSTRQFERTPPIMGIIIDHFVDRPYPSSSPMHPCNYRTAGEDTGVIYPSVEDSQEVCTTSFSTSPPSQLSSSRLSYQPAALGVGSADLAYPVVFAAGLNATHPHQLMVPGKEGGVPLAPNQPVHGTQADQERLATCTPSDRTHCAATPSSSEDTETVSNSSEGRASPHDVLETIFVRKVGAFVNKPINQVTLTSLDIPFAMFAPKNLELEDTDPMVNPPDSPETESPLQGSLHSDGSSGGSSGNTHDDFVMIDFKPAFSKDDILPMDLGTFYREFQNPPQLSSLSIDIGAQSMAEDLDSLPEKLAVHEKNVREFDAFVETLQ
UniProt Q96JM7: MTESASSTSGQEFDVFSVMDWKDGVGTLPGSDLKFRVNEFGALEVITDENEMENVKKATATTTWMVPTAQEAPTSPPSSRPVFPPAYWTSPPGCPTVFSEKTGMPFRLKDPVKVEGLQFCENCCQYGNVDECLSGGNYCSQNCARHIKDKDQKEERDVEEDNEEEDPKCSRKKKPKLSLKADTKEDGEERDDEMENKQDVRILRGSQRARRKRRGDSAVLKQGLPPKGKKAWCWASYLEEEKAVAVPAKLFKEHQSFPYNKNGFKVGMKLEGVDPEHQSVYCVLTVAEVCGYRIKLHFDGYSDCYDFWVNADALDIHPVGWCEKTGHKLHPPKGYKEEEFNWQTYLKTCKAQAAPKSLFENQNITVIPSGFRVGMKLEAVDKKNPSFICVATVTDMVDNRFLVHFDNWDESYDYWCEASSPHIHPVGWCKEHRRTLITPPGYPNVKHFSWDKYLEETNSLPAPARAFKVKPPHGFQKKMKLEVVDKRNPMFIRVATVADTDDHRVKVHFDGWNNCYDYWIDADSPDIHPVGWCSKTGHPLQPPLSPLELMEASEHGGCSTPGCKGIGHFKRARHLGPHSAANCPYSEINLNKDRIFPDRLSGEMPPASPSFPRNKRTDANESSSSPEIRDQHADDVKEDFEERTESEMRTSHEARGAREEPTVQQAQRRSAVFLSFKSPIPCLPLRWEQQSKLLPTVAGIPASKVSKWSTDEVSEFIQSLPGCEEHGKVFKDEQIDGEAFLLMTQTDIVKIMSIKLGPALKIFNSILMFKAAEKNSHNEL
UniProt Q8TDW0: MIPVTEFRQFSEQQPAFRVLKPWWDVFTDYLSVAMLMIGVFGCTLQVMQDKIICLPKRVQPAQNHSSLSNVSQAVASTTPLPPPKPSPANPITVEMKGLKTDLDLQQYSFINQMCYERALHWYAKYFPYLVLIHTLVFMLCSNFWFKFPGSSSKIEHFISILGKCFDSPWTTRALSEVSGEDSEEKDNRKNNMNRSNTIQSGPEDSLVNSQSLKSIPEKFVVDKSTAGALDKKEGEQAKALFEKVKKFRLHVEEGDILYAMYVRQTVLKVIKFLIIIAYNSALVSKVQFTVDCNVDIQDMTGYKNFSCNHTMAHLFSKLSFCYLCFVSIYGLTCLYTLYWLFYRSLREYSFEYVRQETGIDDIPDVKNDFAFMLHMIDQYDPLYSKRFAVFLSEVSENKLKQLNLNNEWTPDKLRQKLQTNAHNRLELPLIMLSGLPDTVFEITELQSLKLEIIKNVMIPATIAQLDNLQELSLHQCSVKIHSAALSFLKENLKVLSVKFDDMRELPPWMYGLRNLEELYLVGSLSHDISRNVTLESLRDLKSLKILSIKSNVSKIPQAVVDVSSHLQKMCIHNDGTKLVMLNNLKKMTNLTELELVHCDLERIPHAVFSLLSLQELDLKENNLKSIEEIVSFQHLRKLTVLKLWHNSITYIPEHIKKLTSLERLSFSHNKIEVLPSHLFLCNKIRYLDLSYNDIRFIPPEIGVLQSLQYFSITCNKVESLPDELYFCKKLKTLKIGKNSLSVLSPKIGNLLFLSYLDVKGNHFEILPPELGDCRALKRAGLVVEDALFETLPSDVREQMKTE

This is one part of the list.

Compound in the assay: COc1ccc(Cn2ccc3ccc(C(=O)NO)cc32)cc1
Briefly: dose-dependent thermal stabilisation call (2D-TPP, DLPTP, 10% FDR) (binary (1 = stabilised)); higher = stabilised by the compound. The conditions noted are these: system: HL-60 intact cells; concentration range 0.04-10 µM.
Consider LOC653156, for which the “dose-dependent thermal stabilisation call” value was inactive: 0.

Turning to KIAA0746 (UniProt Q68CR1), the “dose-dependent thermal stabilisation call” value was inactive: 0.

As for LSM5 (UniProt Q9Y4Y9), the “dose-dependent thermal stabilisation call” value was inactive: 0.

As for KIAA1429 (UniProt Q69YN4), the “dose-dependent thermal stabilisation call” value was inactive: 0.

As to LMAN2L (UniProt Q9H0V9), the “dose-dependent thermal stabilisation call” value was inactive: 0.

As for LOC348262, the “dose-dependent thermal stabilisation call” value was inactive: 0.

Turning to LASS6 (UniProt Q6ZMG9), the “dose-dependent thermal stabilisation call” value was inactive: 0.

In the case of LOC728944, the “dose-dependent thermal stabilisation call” value was inactive: 0.

As to KPNA2 (UniProt P52292), the “dose-dependent thermal stabilisation call” value is inactive: 0.

Take LNPEP (UniProt Q9UIQ6): the “dose-dependent thermal stabilisation call” value is inactive: 0.

Consider LMNA (UniProt P02545), for which the “dose-dependent thermal stabilisation call” value is inactive: 0.

KIAA1715 (UniProt Q9C0E8): the “dose-dependent thermal stabilisation call” value was inactive: 0.

Regarding LRRC47 (UniProt Q8N1G4), the “dose-dependent thermal stabilisation call” value is inactive: 0.

With L3MBTL2 (UniProt Q969R5), the “dose-dependent thermal stabilisation call” value is inactive: 0.

On to LLPH (UniProt Q9BRT6), for which the “dose-dependent thermal stabilisation call” value was inactive: 0.

For the target KIAA0652 (UniProt O75143), the “dose-dependent thermal stabilisation call” value was inactive: 0.

For LUZP6 (UniProt Q538Z0), the “dose-dependent thermal stabilisation call” value is inactive: 0.

Turning to LOC727762, the “dose-dependent thermal stabilisation call” value is inactive: 0.

With LOC283951, the “dose-dependent thermal stabilisation call” value is inactive: 0.

Regarding MALT1 (UniProt Q9UDY8), the “dose-dependent thermal stabilisation call” value is inactive: 0.

Turning to KIAA0922 (UniProt A2VDJ0), the “dose-dependent thermal stabilisation call” value is inactive: 0.

For the target KIF13B (UniProt Q9NQT8), the “dose-dependent thermal stabilisation call” value is inactive: 0.

For LOC643284, the “dose-dependent thermal stabilisation call” value is inactive: 0.

As for LRSAM1 (UniProt Q6UWE0), the “dose-dependent thermal stabilisation call” value was inactive: 0.

As for LOC727877, the “dose-dependent thermal stabilisation call” value is inactive: 0.

In the case of L3MBTL3 (UniProt Q96JM7), the “dose-dependent thermal stabilisation call” value was inactive: 0.

For MAEA (UniProt Q7L5Y9), the “dose-dependent thermal stabilisation call” value is inactive: 0.

With MAD2L2 (UniProt Q9UI95), the “dose-dependent thermal stabilisation call” value was inactive: 0.

As to LPGAT1 (UniProt Q92604), the “dose-dependent thermal stabilisation call” value is inactive: 0.

Consider LOC642451, for which the “dose-dependent thermal stabilisation call” value was inactive: 0.

As to LAPTM5 (UniProt Q13571), the “dose-dependent thermal stabilisation call” value was inactive: 0.

LGTN (UniProt P41214): the “dose-dependent thermal stabilisation call” value was inactive: 0.

Regarding LRRC8C (UniProt Q8TDW0), the “dose-dependent thermal stabilisation call” value is inactive: 0.

Consider KIF21B (UniProt O75037), for which the “dose-dependent thermal stabilisation call” value was inactive: 0.

With LYAR (UniProt Q9NX58), the “dose-dependent thermal stabilisation call” value was inactive: 0.

LMTK2 (UniProt Q8IWU2): the “dose-dependent thermal stabilisation call” value is inactive: 0.

As for LRRC33 (UniProt Q86YC3), the “dose-dependent thermal stabilisation call” value is inactive: 0.

LRWD1 (UniProt Q9UFC0): the “dose-dependent thermal stabilisation call” value was inactive: 0.
